Experiments:
[1] = Plastisole gelation curve (viscosity vs. temperature, rheology meter); conditions: 100 phr PVC, 50 phr Plasticizer, 3 phr ESBO, 2 phr Ca/Zn Stab.; relative to reference DINP
[2] = Plastisole viscosity after 24 h and thickening; conditions: plastisol, 50 phr plasticizer; for viscosity after 24 h: relative to reference; for Thickening: relative to reference DINP
[3] = Cold flex via glass transition temperature (Tg) of compression moulded sheets; conditions: for (33 phr) Cold Flex via Tg / (67 phr) Cold Flex via Tg: compression moulded sheets
[4] = Shore A hardness of plastisole films; conditions: for Plasticize Efficiency Shore A: plastisol film, 50 phr plasticizer, 200° C. 2 minutes, 1 mm
[5] = Dry blend process efficiency (mixing time to dry blend); conditions: 67 phr formula, 88° C.
[6] = Shore A hardness of compression moulded sheets (dry blend compound); conditions: 67 phr formula
[7] = Transparency of transparent PVC film, plasticiser compatibility; conditions: for Compatibilty: Transparency % Transparent: transparent PVC film, 50 phr plasticiser; for delta vs. ref. (transparency): versus DINP

CCCCC(CC)COC(=O)CCCCC(=O)OCC(CC)CCCC (stereo not shown) [DOA, Di-octyladepate]
Gelation (Visc. vs. Temp.) [1]: slower | viscosity after 24 h [2]: signif. lower | Thickening [2]: slightly higher | Delta versus DINP (%) (33 phr Cold Flex) [3]: 318% | (33 phr) Cold Flex via Tg [3]: −48.1 | Delta versus DINP (%) (67 phr Cold Flex) [3]: 58% | (67 phr) Cold Flex via Tg [3]: −72.5

CC(C)CCCCCCOC(=O)c1ccccc1 [INB, Isononyl Benzoate]
Gelation (Visc. vs. Temp.) [1]: faster | viscosity after 24 h [2]: signif. lower | Thickening [2]: higher

CCCCC(CC)COC(=O)c1ccc(C(=O)OCC(CC)CCCC)cc1 (stereo not shown) [DOTP, Di-octyltherephthalate]
Gelation (Visc. vs. Temp.) [1]: slower | Thickening [2]: less high | Plasticize Efficiency % Difference vs. DINP ([4]; Shore A, plastisol, 50 phr): −3.75% | Plasticize Efficiency % Difference vs. DOA ([4]; Shore A, plastisol, 50 phr): −10.67% | Plasticize Efficiency Shore A [4]: 83 Shore A | Dry Blend Process efficiency (mixing time), # min. to dry blend [5]: 7 min | Plasticize Efficiency % better vs. DINP [6]: −2.8% | Delta versus DINP (%) (33 phr Cold Flex) [3]: −5% | (33 phr) Cold Flex via Tg [3]: −10.9 | Delta versus DINP (%) (67 phr Cold Flex) [3]: −10% | (67 phr) Cold Flex via Tg [3]: −41.4

CCCCCC(CCC)COC(=O)CCC(=O)OCC(CCC)CCCCC (stereo not shown) [DPHS, di-(2-propylheptyl)succinate]
Compatibilty: Transparency % Transparent [7]: 58.10% | delta vs. ref. (transparency) [7]: −34.20%

CC(C)CCCCCCOC(=O)c1ccccc1C(=O)OCCCCCCC(C)C [DINP, Di-isononylphthalate]
Compatibilty: Transparency % Transparent [7]: 88.30% | Plasticize Efficiency % Difference vs. DOA ([4]; Shore A, plastisol, 50 phr): −6.67% | Plasticize Efficiency Shore A [4]: 80 Shore A | Dry Blend Process efficiency (mixing time), # min. to dry blend [5]: 5.8 min | (33 phr) Cold Flex via Tg [3]: −11.5 | (67 phr) Cold Flex via Tg [3]: −46

CC(C)CCCCCCOC(=O)CCC(=O)OCCCCCCC(C)C [DINS, diisononylsuccinate]
Compatibilty: Transparency % Transparent [7]: 77.60% | delta vs. ref. (transparency) [7]: −12.12%
